Results are given in words; binding and its absence hold for the method and conditions named. Binding seen in cells or lysates may run through a third protein. Some results given as binding are weak or reduced against the parent protein; the word gives no strength.
Biological target: T1, DRAP1 (DR1-associated corepressor), endogenous (human (endogenous in THP-1)) (UniProt Q14919)
T1 sequence: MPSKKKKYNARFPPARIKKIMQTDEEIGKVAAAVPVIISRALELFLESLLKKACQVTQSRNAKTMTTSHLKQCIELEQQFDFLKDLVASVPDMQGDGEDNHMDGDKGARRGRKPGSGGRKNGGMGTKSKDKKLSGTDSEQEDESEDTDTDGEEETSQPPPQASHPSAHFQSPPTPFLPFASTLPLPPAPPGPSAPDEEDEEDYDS
Test: co-IP; MCE1-HA-expressing THP-1 macrophages, mock-infected or infected with HIV-1 (SERINC5+/−), also with RPL35 and DRAP1 overexpressed or knocked out; IP with RPL35 or DRAP1 antibodies or of MCE1-HA, Western blot

Sequences of proteins named here, by UniProt entry; tags and fusion partners are left off.
UniProt O60942: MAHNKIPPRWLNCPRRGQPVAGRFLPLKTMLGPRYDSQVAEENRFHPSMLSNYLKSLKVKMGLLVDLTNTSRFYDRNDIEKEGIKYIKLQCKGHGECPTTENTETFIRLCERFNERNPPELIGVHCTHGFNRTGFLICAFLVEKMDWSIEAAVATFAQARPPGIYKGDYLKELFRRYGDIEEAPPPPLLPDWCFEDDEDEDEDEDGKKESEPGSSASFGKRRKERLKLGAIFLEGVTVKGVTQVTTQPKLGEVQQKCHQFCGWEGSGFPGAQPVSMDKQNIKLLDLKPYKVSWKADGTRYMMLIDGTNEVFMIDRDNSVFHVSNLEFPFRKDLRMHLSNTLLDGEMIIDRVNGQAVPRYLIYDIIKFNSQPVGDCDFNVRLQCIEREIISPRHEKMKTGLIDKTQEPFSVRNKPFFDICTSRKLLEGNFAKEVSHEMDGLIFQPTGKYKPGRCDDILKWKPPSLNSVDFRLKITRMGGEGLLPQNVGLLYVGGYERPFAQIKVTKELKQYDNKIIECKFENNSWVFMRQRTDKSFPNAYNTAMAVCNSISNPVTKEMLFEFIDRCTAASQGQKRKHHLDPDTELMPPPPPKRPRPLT

binding: binds
Substance: C-terminally HA-tagged MCE1 (mammalian capping enzyme) (from UniProt O60942 1-597)

Reference: publication PMC10127607
